Results deposited as PubChem BioAssay AID1224830 (NIAID, 2016).
Here is an unselected part of about 18,000 reagents tested. About 2,900 of all reagents (16%) were called active. 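Calls are made per well; low scores hint the gene aids the LPS response, high scores that it dampens it.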 Repeated entries: four replicate wells of each siRNA pool. Reagent sequences are not shown.

Aim: 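Genes whose knock-down alters the TNF-alpha reporter response to LPS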 (primary screen)
Cells: human THP-1 monocytic leukaemia cells, TNF dual-luciferase reporter clone, PMA-differentiated to macrophage-like cells
Reagent: siRNA pool against human genes, 50 nM
Timing: LPS for 4 h, given about 3 days after siRNA transfection
Challenge: bacterial LPS (TLR4 ligand), 10 ng/ml
Read-out: 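Ratio of firefly to renilla light, scaled to the plate median and expressed as a robust z-score per replicate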
Reading the numbers: TNF reporter robust z-score: higher = stronger TNF reporter response to LPS
Call rule: 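Each well counts as active if its z-score is over 2.8 or under -1.5; controls are left without a call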

| gene | TNF reporter robust z-score | Call |
| --- | --- | --- |
| RFWD3 (GeneID 55159) | -1.53 | active |
| RFWD3 (GeneID 55159) | -0.43 | inactive |
| RFWD3 (GeneID 55159) | -0.96 | inactive |
| RFWD3 (GeneID 55159) | -1.39 | inactive |
| SLC27A5 (GeneID 10998) | 1.02 | inactive |
| SLC27A5 (GeneID 10998) | -0.02 | inactive |
| SLC27A5 (GeneID 10998) | -0.34 | inactive |
| SLC27A5 (GeneID 10998) | 0.42 | inactive |
| BIN3 (GeneID 55909) | -0.83 | inactive |
| BIN3 (GeneID 55909) | -0.45 | inactive |
| BIN3 (GeneID 55909) | -1 | inactive |
| BIN3 (GeneID 55909) | -1.3 | inactive |
| FLNC (GeneID 2318) | 1.7 | inactive |
| FLNC (GeneID 2318) | 1.28 | inactive |
| FLNC (GeneID 2318) | 0.38 | inactive |
| FLNC (GeneID 2318) | 2.07 | inactive |
| PLEKHG1 (GeneID 57480) | -0.43 | inactive |
| PLEKHG1 (GeneID 57480) | -0.23 | inactive |
| PLEKHG1 (GeneID 57480) | -1 | inactive |
| PLEKHG1 (GeneID 57480) | -0.79 | inactive |
| CENPP (GeneID 401541) | -1.65 | active |
| CENPP (GeneID 401541) | 0.11 | inactive |
| CENPP (GeneID 401541) | -0.48 | inactive |
| CENPP (GeneID 401541) | -1.02 | inactive |
| PTH (GeneID 5741) | 0.11 | inactive |
| PTH (GeneID 5741) | -0.01 | inactive |
| PTH (GeneID 5741) | -0.46 | inactive |
| PTH (GeneID 5741) | -0.07 | inactive |
| GTPBP10 (GeneID 85865) | -0.57 | inactive |
| GTPBP10 (GeneID 85865) | 1.34 | inactive |
| GTPBP10 (GeneID 85865) | -0.35 | inactive |
| GTPBP10 (GeneID 85865) | 0.97 | inactive |
| LRWD1 (GeneID 222229) | – | inactive |
| LRWD1 (GeneID 222229) | -0.23 | inactive |
| LRWD1 (GeneID 222229) | -1.01 | inactive |
| LRWD1 (GeneID 222229) | -1.19 | inactive |
| NOP56 (GeneID 10528) | 1.44 | inactive |
| NOP56 (GeneID 10528) | 1.07 | inactive |
| NOP56 (GeneID 10528) | 0.92 | inactive |
| NOP56 (GeneID 10528) | 1.59 | inactive |
| TNFRSF25 (GeneID 8718) | 0.68 | inactive |
| TNFRSF25 (GeneID 8718) | -0.34 | inactive |
| TNFRSF25 (GeneID 8718) | 3.16 | active |
| TNFRSF25 (GeneID 8718) | 1.9 | inactive |
| C2CD2 (GeneID 25966) | -0.95 | inactive |
| C2CD2 (GeneID 25966) | -0.36 | inactive |
| C2CD2 (GeneID 25966) | 0.27 | inactive |
| C2CD2 (GeneID 25966) | -0.3 | inactive |
| SERPINB11 (GeneID 89778) | -0.33 | inactive |
| SERPINB11 (GeneID 89778) | 0.39 | inactive |
| SERPINB11 (GeneID 89778) | 0.99 | inactive |
| SERPINB11 (GeneID 89778) | 0.65 | inactive |
| H3C6 (GeneID 8353) | -0.13 | inactive |
| H3C6 (GeneID 8353) | -0.43 | inactive |
| H3C6 (GeneID 8353) | -0.64 | inactive |
| H3C6 (GeneID 8353) | -1.36 | inactive |

Records above whose gene name begins with P or p (8):
| gene | TNF reporter robust z-score | Call |
| --- | --- | --- |
| PLEKHG1 (GeneID 57480) | -0.43 | inactive |
| PLEKHG1 (GeneID 57480) | -0.23 | inactive |
| PLEKHG1 (GeneID 57480) | -1 | inactive |
| PLEKHG1 (GeneID 57480) | -0.79 | inactive |
| PTH (GeneID 5741) | 0.11 | inactive |
| PTH (GeneID 5741) | -0.01 | inactive |
| PTH (GeneID 5741) | -0.46 | inactive |
| PTH (GeneID 5741) | -0.07 | inactive |

The listing continues:
| gene | TNF reporter robust z-score | Call |
| --- | --- | --- |
| CRIP3 (GeneID 401262) | -0.14 | inactive |
| CRIP3 (GeneID 401262) | 1.47 | inactive |
| CRIP3 (GeneID 401262) | 0.78 | inactive |
| CRIP3 (GeneID 401262) | 0.11 | inactive |
| SMIM3 (GeneID 85027) | -0.45 | inactive |
| SMIM3 (GeneID 85027) | -0.36 | inactive |
| SMIM3 (GeneID 85027) | 0.22 | inactive |
| SMIM3 (GeneID 85027) | -0.43 | inactive |
| HKDC1 (GeneID 80201) | 1.25 | inactive |
| HKDC1 (GeneID 80201) | 0.63 | inactive |
| HKDC1 (GeneID 80201) | 1.05 | inactive |
| HKDC1 (GeneID 80201) | 1.55 | inactive |
| PGS1 (GeneID 9489) | 1.12 | inactive |
| PGS1 (GeneID 9489) | 1.67 | inactive |
| PGS1 (GeneID 9489) | 1.13 | inactive |
| PGS1 (GeneID 9489) | 2.05 | inactive |
| FAM156A (GeneID 29057) | 0.86 | inactive |
| FAM156A (GeneID 29057) | 1.18 | inactive |
| FAM156A (GeneID 29057) | 0.36 | inactive |
| FAM156A (GeneID 29057) | 1 | inactive |
| HMGCS1 (GeneID 3157) | -0.96 | inactive |
| HMGCS1 (GeneID 3157) | -0.97 | inactive |
| HMGCS1 (GeneID 3157) | -0.55 | inactive |
| HMGCS1 (GeneID 3157) | -0.11 | inactive |
| CCNH (GeneID 902) | 0.85 | inactive |
| CCNH (GeneID 902) | -0.33 | inactive |
| CCNH (GeneID 902) | 0.5 | inactive |
| CCNH (GeneID 902) | -0.39 | inactive |
| HPX (GeneID 3263) | -1.18 | inactive |
| HPX (GeneID 3263) | -1.28 | inactive |
| HPX (GeneID 3263) | -1.35 | inactive |
| HPX (GeneID 3263) | -1.32 | inactive |
| C14orf119 (GeneID 55017) | 0.39 | inactive |
| C14orf119 (GeneID 55017) | 1.04 | inactive |
| C14orf119 (GeneID 55017) | 2.19 | inactive |
| C14orf119 (GeneID 55017) | 0.95 | inactive |
| TAS2R43 (GeneID 259289) | 1.08 | inactive |
| TAS2R43 (GeneID 259289) | 0.75 | inactive |
| TAS2R43 (GeneID 259289) | 0.86 | inactive |
| TAS2R43 (GeneID 259289) | 1.64 | inactive |
| C2CD5 (GeneID 9847) | -0.62 | inactive |
| C2CD5 (GeneID 9847) | 0.21 | inactive |
| C2CD5 (GeneID 9847) | -0.95 | inactive |
| C2CD5 (GeneID 9847) | 0.45 | inactive |
| AUH (GeneID 549) | -0.11 | inactive |
| AUH (GeneID 549) | 1.21 | inactive |
| AUH (GeneID 549) | 1 | inactive |
| AUH (GeneID 549) | 1.34 | inactive |
| PLA2G4D (GeneID 283748) | -1.37 | inactive |
| PLA2G4D (GeneID 283748) | -0.97 | inactive |
| PLA2G4D (GeneID 283748) | -1.08 | inactive |
| PLA2G4D (GeneID 283748) | -0.63 | inactive |
| P4HA1 (GeneID 5033) | -1.05 | inactive |
| P4HA1 (GeneID 5033) | 0.99 | inactive |
| P4HA1 (GeneID 5033) | 0.34 | inactive |
| P4HA1 (GeneID 5033) | 1.11 | inactive |
| YES1 (GeneID 7525) | -0.12 | inactive |
| YES1 (GeneID 7525) | 0.65 | inactive |
| YES1 (GeneID 7525) | 0.14 | inactive |
| YES1 (GeneID 7525) | 0.71 | inactive |
| BANK1 (GeneID 55024) | 0.18 | inactive |
| BANK1 (GeneID 55024) | -0.01 | inactive |
| BANK1 (GeneID 55024) | -0.36 | inactive |
| BANK1 (GeneID 55024) | 0.66 | inactive |
| HSD17B13 (GeneID 345275) | 4.04 | active |
| HSD17B13 (GeneID 345275) | 3.41 | active |
| HSD17B13 (GeneID 345275) | 3.8 | active |
| HSD17B13 (GeneID 345275) | 3.69 | active |
| OSMR (GeneID 9180) | 2.35 | inactive |
| OSMR (GeneID 9180) | 2.83 | active |
| OSMR (GeneID 9180) | 2.42 | inactive |
| OSMR (GeneID 9180) | 2.81 | active |
| TRIM48 (GeneID 79097) | -0.25 | inactive |
| TRIM48 (GeneID 79097) | 0.91 | inactive |
| TRIM48 (GeneID 79097) | -1.22 | inactive |
| TRIM48 (GeneID 79097) | -1.61 | active |
| C20orf141 (GeneID 128653) | 1.12 | inactive |
| C20orf141 (GeneID 128653) | 1.81 | inactive |
| C20orf141 (GeneID 128653) | 0.61 | inactive |
| C20orf141 (GeneID 128653) | 2.51 | inactive |
| ILRUN (GeneID 64771) | 1.32 | inactive |
| ILRUN (GeneID 64771) | 0.72 | inactive |
| ILRUN (GeneID 64771) | 0.85 | inactive |
| ILRUN (GeneID 64771) | 1.61 | inactive |
